Measured values reported in patent publication US20140080772A1, “TREATMENTS FOR MELANOMA” (The Board of Regents of the University of Texas System, priority 2012, published 2014).
Where two headings read alike, the source gives them in different places. At least one structure is not confirmed: it was looked up by name or label, or the drawing left a doubt.

Legend:
metastatic melanoma = settings: randomized clinical trials; cited from earlier work
[1] = system: M214 metastatic melanoma cells; assay type: in vivo, NSG mice; settings: digitoxin 0.5 mg/kg/day; dacarbazine 5 mg/kg every other day; alone or in combination
KU812 = settings: cited from earlier work
[2] = system: M481 metastatic melanoma cells; assay: M481 melanoma xenograft tumor growth in NSG mice; assay type: in vivo; settings: Bafetinib 20 mg/kg/day i.p. vs DMSO control
U937 cell line = settings: cited from earlier work

| Structure (SMILES) | overall response rate (metastatic melanoma) | overall survival (metastatic melanoma) | growth of human melanoma xenografts [1] | tumor growth (KU812; 0.2 mg/kg/day) | tumor growth (KU812; 20 mg/kg/day) | growth of subcutaneous tumors [2] | effect on proliferation (U937 cell line) |
| --- | --- | --- | --- | --- | --- | --- | --- |
| CN(C)/N=N/c1[nH]cnc1C(N)=O [dacarbazine] | 10-20% | no impact on overall survival | slowed the growth | – | – | – | – |
| Cc1ccc(NC(=O)c2ccc(CN3CC[C@H](N(C)C)C3)c(C(F)(F)F)c2)cc1Nc1nccc(-c2cncnc2)n1 [Bafetinib, bafetinib] | – | – | – | significantly inhibits tumor growth | completely inhibits tumor growth | significant reduction | without effects |
